Laboratory results published in PubChem BioAssay AID720504 (National Center for Advancing Translational Sciences (NCATS), 2013).
Hit rate of the full screen: of about 360,000 compounds, about 10,000 (2.8%) were called active. This list was built around the results that the source calls inconclusive (neither active nor inactive); the mix of calls is not that of the screen. The call rests on the fitted dose curve; in most records, active means well fitted inhibition curve with a large enough effect; inconclusive means small, poorly fitted or top-dose-only effect; inactive means flat fitted curve, though single readings scatter. Potencies of inconclusive entries are doubtful fits and often do not repeat.

Amino acid sequences for entries named in this document (tags omitted).
UniProt P53350, whole entry, looked up: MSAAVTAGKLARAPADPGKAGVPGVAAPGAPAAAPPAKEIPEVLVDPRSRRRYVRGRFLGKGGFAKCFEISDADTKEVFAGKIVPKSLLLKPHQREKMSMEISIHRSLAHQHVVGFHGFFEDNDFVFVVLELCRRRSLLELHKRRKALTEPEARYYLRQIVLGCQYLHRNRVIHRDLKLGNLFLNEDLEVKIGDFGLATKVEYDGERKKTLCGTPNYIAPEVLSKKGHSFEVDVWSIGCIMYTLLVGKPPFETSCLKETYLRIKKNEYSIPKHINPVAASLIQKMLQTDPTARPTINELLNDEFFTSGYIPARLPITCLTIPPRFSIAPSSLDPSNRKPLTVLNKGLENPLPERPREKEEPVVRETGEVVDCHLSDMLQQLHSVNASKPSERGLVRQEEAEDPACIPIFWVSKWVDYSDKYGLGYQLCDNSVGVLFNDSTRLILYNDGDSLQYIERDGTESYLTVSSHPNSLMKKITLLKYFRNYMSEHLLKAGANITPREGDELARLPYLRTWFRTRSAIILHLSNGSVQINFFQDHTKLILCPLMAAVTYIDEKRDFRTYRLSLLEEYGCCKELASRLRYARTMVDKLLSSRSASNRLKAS

molecular target: Serine/threonine-protein kinase PLK1 (Homo sapiens) (UniProt P53350); experiment: qHTS for Inhibitors of PLK1-PDB (polo-like kinase 1 - polo-box domain): Primary Screen; details: Plk1 PBD binding of FITC phosphopeptide, fluorescence polarization; further: nearly all actives have a fitted effect of over 65% in size; on max response, negative = inhibition: series mostly up to about 57 µM
On the % scale 0 is the no-effect control and ±100 the full control effect; potency means the concentration at half of the fitted maximal effect.

Question: How did the max response, negative = inhibition turn out when COc1cccc(Oc2ccc(C(F)(F)F)cc2NC(=O)CCc2nc3ccccc3c(=O)[nH]2)c1 was run?
Answer: inactive: 9.74%

Question: Which Potency does the source give for COc1ccc(OC)c(CNc2ccc3c(c2)CCC3)c1 here?
Answer: inconclusive: 26.7 µM [inhibitor, partial curve]

Question: For O=C(N/N=C/C=C/c1ccccc1[N+](=O)[O-])c1cccs1, which max response, negative = inhibition is on record?
Answer: inactive: -5.08%

Question: For CC(C)c1ccccc1NC(=O)COC(=O)c1cccnc1, which max response, negative = inhibition is on record?
Answer: inactive: -4.15%

Question: How did the max response, negative = inhibition turn out when CCC(c1nnnn1Cc1ccccc1)N1CCN(c2ccc(OC)cc2)CC1 (stereo not given) was run?
Answer: inactive: -8.19%

Question: Which max response, negative = inhibition does the source give for COc1ccccc1N1CCN(C(=O)C(=O)c2c(C)[nH]c3ccccc23)CC1 here?
Answer: inactive: -11.3%

Question: With O=C(CCNC(=O)c1ccccc1)NNC(=O)c1ccc(F)cc1 as the compound, how does the max response, negative = inhibition read?
Answer: inactive: -14.1%

Question: With CCc1cccc(CC)c1NC(=O)CSc1nnc(C(C)C)n1CC as the compound, how does the Potency read?
Answer: inconclusive: 37.7 µM [inhibitor, single point]

Question: With CS(=O)(=O)c1sc2nc(-c3cccs3)cc(-c3ccccc3)c2c1N as the compound, how does the Potency read?
Answer: active: 8.44 µM

Question: With Cc1cc(C)nc(NN2C(=O)C=CC2=O)n1 as the compound, how does the Potency read?
Answer: inconclusive: 37.7 µM [inhibitor, single point]

Question: With COc1cccc(/C=N/NC(=O)c2ccc(N3CCCC3=O)cc2)c1 as the compound, how does the max response, negative = inhibition read?
Answer: inactive: -5.39%

Question: Which Potency does the source give for COc1cccc(C2C3CN(C)CC=C3C(C#N)=C(N)C2(C#N)C#N)c1OC (stereo not given) here?
Answer: inconclusive: 26.7 µM [inhibitor, partial curve]

Question: For C=CCN1C(=O)N/C(=C/c2ccc(C)o2)C1=O, which Potency is on record?
Answer: inconclusive: 26.7 µM [inhibitor, single point]

Question: With CCCS(=O)(=O)Nc1cccc(-c2ccc3nnc(C)n3n2)c1 as the compound, how does the Potency read?
Answer: inconclusive: 8.44 µM [inhibitor, single point]

Question: How did the Potency turn out when O=C(NCCSc1ccc(Br)cc1)c1ccccc1 was run?
Answer: active: 26.7 µM

Question: How did the Potency turn out when Cc1ccccc1OCCCN1C(=O)C(=O)c2cccc(C)c21 was run?
Answer: inconclusive: 18.9 µM [inhibitor, partial curve]

Question: With COC(=O)[C@@H](NC(=O)Nc1cccc(Br)c1)C(C)C as the compound, how does the Potency read?
Answer: inconclusive: 5.97 µM [inhibitor, single point]

Question: Which Potency does the source give for CCN1C(=O)/C(=C\c2cn(CCC#N)nc2-c2ccc(F)cc2)SC1=S here?
Answer: inconclusive: 18.9 µM [inhibitor, partial curve]

Question: How did the Potency turn out when O=C(CN1C(=O)C2C3C=CC(C4CC34)C2C1=O)Nc1cccc2ncccc12 (stereo not given) was run?
Answer: active: 29.9 µM

Question: For O=C(c1ccc(Cl)cc1Cl)N1CCc2ccccc21, which max response, negative = inhibition is on record?
Answer: inactive: -4.16%

Question: With Cn1nnnc1SCC(=O)c1ccc(Br)s1 as the compound, how does the Potency read?
Answer: inconclusive: 26.7 µM [inhibitor, partial curve]

Question: O=C(CSc1nc(COc2ccccc2)nc2ccccc12)NC1CCCC1 was tested. Which max response, negative = inhibition did it give?
Answer: inconclusive: -31.2% [inhibitor]

Question: How did the Potency turn out when CC1CCN(c2ccc(NC(=O)Cn3c(=O)oc4ccccc43)cc2)CC1 was run?
Answer: inconclusive: 29.9 µM [inhibitor, partial curve]

Question: CO/N=C/NC(=O)c1ccc([N+](=O)[O-])c(CS(=O)(=O)c2ccc(Cl)cc2)c1 was tested. Which Potency did it give?
Answer: active: 2.99 µM

Question: Cc1cccc(N2C(=O)/C(=C\c3ccc(OC(F)F)cc3)c3ccccc3C2=O)c1 was tested. Which Potency did it give?
Answer: active: 2.38 µM

Question: Which Potency does the source give for O=C1NCCCC2c3c(cc(Br)c(O)c3Br)OC12N1CCCCC1 (stereo not given) here?
Answer: inconclusive: 29.9 µM [inhibitor, partial curve]

Question: Which max response, negative = inhibition does the source give for Cc1ccc(N(CC(=O)NCC(O)c2ccccc2)S(=O)(=O)c2ccc(C)cc2)cc1 (stereo not given) here?
Answer: inconclusive: -34% [inhibitor]

Question: How did the max response, negative = inhibition turn out when Cc1ccccc1-n1c(O)c(C=NC2CCS(=O)(=O)C2)c2ccccc2c1=O (stereo not given) was run?
Answer: inactive: 3.1%

Question: For CCNc1nc(NC(N)=S)nc(NC(C)(C)C)n1, which Potency is on record?
Answer: active: 26.7 µM

Question: For Cc1cc(C)n2c(=S)[nH]nc2n1, which Potency is on record?
Answer: active: 3.36 µM

Question: Which max response, negative = inhibition does the source give for Cc1cccc(COc2ncnc3nc[nH]c23)c1 here?
Answer: inactive: -2.75%

Question: How did the Potency turn out when Cc1coc2c1C(=O)C(=O)c1c-2ccc2c(C)cccc12 was run?
Answer: inconclusive: 26.7 µM [inhibitor, partial curve]

Question: Which Potency does the source give for CCOC(=O)CSC1=C(C#N)C(=O)NC2(CCCCC2)S1 here?
Answer: inconclusive: 42.3 µM [inhibitor, partial curve, poor fit]

Question: Which max response, negative = inhibition does the source give for C=C(C)c1cccc(C(C)(C)NC(=O)NNC(=O)c2ccccc2O)c1 here?
Answer: inactive: -6.33%

Question: Which max response, negative = inhibition does the source give for CC(O)(c1ccccc1)c1nc(/C=C/c2ccccc2)cs1 (stereo not given) here?
Answer: inactive: 4.76%

Question: How did the Potency turn out when CCc1ccc(S(=O)(=O)Nc2ccc(O)c3ccccc23)cc1 was run?
Answer: inconclusive: 26.7 µM [inhibitor, single point]

Question: How did the max response, negative = inhibition turn out when COc1ccc(-c2coc3c(C(=O)NC4CCCCC4)cccc23)c(C)c1 was run?
Answer: inactive: -0.904%

Question: How did the max response, negative = inhibition turn out when COc1ccc(Cn2ccnc2SCC(=O)Nc2ccccc2OC)cc1 was run?
Answer: inactive: -13%

Question: For COc1ccccc1C(=O)Nc1cccc(NC(=O)c2ccccc2C)c1, which Potency is on record?
Answer: active: 21.2 µM

Question: For O=C(OCCCN1C(=O)c2ccccc2C1=O)c1ccco1, which Potency is on record?
Answer: active: 26.7 µM

Question: Which max response, negative = inhibition does the source give for C=C(C)Cn1c2ccc(NC(=O)NCC)cc2c(=O)n1C here?
Answer: inconclusive: -33.6% [inhibitor]

Question: How did the Potency turn out when Cc1ccc([C@@H]2[C@@H]3C(=O)N(c4ccccc4)C(=O)[C@@H]3[C@]3(C)C(=O)N(Cc4ccc(-c5ccccc5)cc4)CC(=O)N23)o1 was run?
Answer: inconclusive: 67 µM [inhibitor, partial curve]

Question: Cc1ccc2c(c1)N(CCCC(=O)Nc1cccc(C(F)(F)F)c1)C(=O)CO2 was tested. Which Potency did it give?
Answer: active: 26.7 µM

Question: For O=C(O)c1ccccc1CSc1nnc2c(n1)[nH]c1ccccc12, which Potency is on record?
Answer: inconclusive: 23.8 µM [inhibitor, single point]

Question: For CCC1(CC)Cc2ccccc2-c2nc(CN(C)C)[nH]c(=O)c21, which max response, negative = inhibition is on record?
Answer: inconclusive: -30.4% [inhibitor]

Question: For C[C@@H]1CN=C2N(CCNC(=O)CCC3CCCCC3)[C@H](Cc3ccc(O)cc3)CN21, which Potency is on record?
Answer: inconclusive: 11.9 µM [inhibitor, single point]

Question: Which Potency does the source give for OCc1ccccc1SSc1ccccc1CO here?
Answer: active: 0.267 µM

Question: Which Potency does the source give for CCOC(=O)CN1C(=O)S/C(=C/c2ccc(OCc3ccc(C(=O)O)cc3)cc2)C1=O here?
Answer: inconclusive: 29.9 µM [inhibitor, single point]

Question: With COc1cccc(N=Nc2c(=O)[nH]n3c(=O)c4c([nH]c23)CCC4)c1 as the compound, how does the Potency read?
Answer: active: 29.9 µM

Question: For N#Cc1c(-c2ccccc2)nc(SCc2ccc(Cl)cc2)[nH]c1=O, which Potency is on record?
Answer: inconclusive: 23.8 µM [inhibitor, single point]

Question: How did the Potency turn out when Cc1ccc(N2C(=N)/C(=C3/Nc4ccccc4S3)C(c3ccccc3)C2=O)cc1 (stereo not given) was run?
Answer: inconclusive: 4.23 µM [inhibitor, full curve]

Question: With O=C(Cn1cnc2ccc(Cl)cc2c1=O)NC1CCS(=O)(=O)C1 (stereo not given) as the compound, how does the max response, negative = inhibition read?
Answer: inactive: -8.51%

Question: With Cc1ccccc1/C=N/Nc1nc2ccccc2c(=O)n1O as the compound, how does the Potency read?
Answer: active: 11.9 µM

Question: CCC(C)NC(=O)CS(=O)Cc1nc(-c2ccccc2C)oc1C (stereo not given) was tested. Which Potency did it give?
Answer: inconclusive: 26.7 µM [inhibitor, single point]

Question: Which max response, negative = inhibition does the source give for CCOC(=O)/C=C/C(=O)Nc1ccccc1-c1ccccc1NC(=O)/C=C/C(=O)OCC here?
Answer: inconclusive: -32.3% [inhibitor]

Question: For O=C(COc1ccc2ccccc2c1)N/N=C/c1ccccn1, which Potency is on record?
Answer: active: 18.9 µM

Question: Which Potency does the source give for CCOc1cc(C2c3c(n[nH]c3C)C(=O)N2c2ccc(Br)cc2)ccc1O (stereo not given) here?
Answer: inconclusive: 13.4 µM [inhibitor, partial curve]

Question: Which Potency does the source give for N=C1/C(=C/c2coc3ccccc3c2=O)C(=O)N=C2SC(c3ccco3)=NN12 here?
Answer: inconclusive: 37.7 µM [inhibitor, single point]

Question: Which Potency does the source give for COc1cc(/C=C2/C(=O)NN(c3cccc(C)c3)C2=O)ccc1OC(=O)c1ccco1 here?
Answer: active: 2.99 µM

Question: Which max response, negative = inhibition does the source give for Cc1cccc(OCC(=O)Nc2cccc(-c3nnc(-c4ccccc4)o3)c2)c1C here?
Answer: inactive: -4.56%

Question: How did the Potency turn out when Cc1cc(C)c(S(=O)(=O)C(C)C)c(=O)[nH]1 was run?
Answer: active: 23.8 µM

Question: Cc1ccc(NC(=O)NNC(=O)CN2C(=O)COc3ccccc32)cc1 was tested. Which max response, negative = inhibition did it give?
Answer: inactive: 4.98%

Question: With O=C(O)c1cc([N+](=O)[O-])ccc1NCc1ccccc1Cl as the compound, how does the Potency read?
Answer: active: 23.8 µM

Question: How did the Potency turn out when O=c1cc(-c2ccncc2)oc2ccccc12 was run?
Answer: inconclusive: 23.8 µM [inhibitor, partial curve]

Question: COC(=O)c1cc(C(=O)Nc2nnc(CC(C)(C)C)s2)cc([N+](=O)[O-])c1 was tested. Which Potency did it give?
Answer: active: 18.9 µM

Question: Fc1ccc(NC(=S)NCCN2CCOCC2)cc1 was tested. Which Potency did it give?
Answer: inconclusive: 9.47 µM [inhibitor, partial curve]

Question: How did the max response, negative = inhibition turn out when Cc1cc(C)cc(-n2c(C)cc(/C=N\NC(=O)COc3cccc4cccnc34)c2C)c1 was run?
Answer: inactive: -0.462%

Question: How did the Potency turn out when Oc1ccc2ccccc2c1Br was run?
Answer: inconclusive: 29.9 µM [inhibitor, partial curve]

Question: CCOC(=O)/C(C#N)=C/c1cc2ccccc2nc1Cl was tested. Which Potency did it give?
Answer: inconclusive: 26.7 µM [inhibitor, partial curve]

Question: Which Potency does the source give for O=C(Nc1ccccc1)C1CCCN1C(=O)Nc1ccccc1[N+](=O)[O-] (stereo not given) here?
Answer: inconclusive: 7.52 µM [inhibitor, single point]

Question: For N#Cc1c(-c2ccccc2)nc(SCc2ccc([N+](=O)[O-])cc2)[nH]c1=O, which Potency is on record?
Answer: active: 26.7 µM

Question: How did the Potency turn out when CC1CC2(CCCC2)N(C(=O)c2ccccc2)Cc2ccccc21 (stereo not given) was run?
Answer: inconclusive: 26.7 µM [inhibitor, single point]

Question: Which Potency does the source give for O=C(O)c1cccc(-n2cccc2/C=C2/NC(=O)N(c3cccc(Cl)c3)C2=O)c1 here?
Answer: inconclusive: 21.2 µM [inhibitor, partial curve]

Question: Which max response, negative = inhibition does the source give for COc1ccc(NC2CCCN(C(=O)c3ccc(C)nc3)C2)cc1 (stereo not given) here?
Answer: inactive: -0.882%

Question: With Cc1ccc(NC(=O)CN2C(=O)N/C(=C/c3cc(C)n(-c4cccc(C(=O)O)c4)c3C)C2=O)cc1 as the compound, how does the Potency read?
Answer: inconclusive: 23.8 µM [inhibitor, single point]
